Converted amounts (≈) assume the structure as drawn.
Key:
S. aureus ATCC 25923 = assay: MIC, agar incorporation method; details: Staphylococcus aureus, ATCC25923, read-out: MIC S. aureus 25923
S. aureus = assay: Summary of in vitro activity (MIC); details: Staphylococcus aureus, read-out: Geometric Mean of in vitro activity (MIC)
E. faecalis = assay: Summary of in vitro activity (MIC); details: Enterococcus faecalis, read-out: Geometric Mean of in vitro activity (MIC)

Compound: CN[C@H](CC(C)C)C(=O)N[C@H]1C(=O)N[C@@H](CC(N)=O)C(=O)N[C@H]2C(=O)N[C@H]3C(=O)N[C@H](C(=O)N[C@H](C(=O)O)c4cc(O)cc(O)c4-c4cc3ccc4O)[C@H](O)c3ccc(c(Cl)c3)Oc3cc2cc(c3O[C@@H]2O[C@H](CO)[C@@H](O)[C@H](O)[C@H]2O[C@H]2C[C@](C)(N)[C@H](O)[C@H](C)O2)Oc2ccc(cc2Cl)[C@H]1O [Vancomycin]
- MIC (S. aureus ATCC 25923): 1 mg/L (≈ 0.69 µM)
- MIC (S. aureus): 1 mg/L (≈ 0.69 µM)
- MIC (E. faecalis): 9.75 mg/L (≈ 6.73 µM)
